Data published in US9321804B2, “Synthesis and use of anti-tumor drug LQC-Y” (Beijing University of Chinese Medicine, priority 2011, dated 2016).

Key:
S180 sarcoma of mice [1] = assay: Tumor inhibiting effect of LQC-Y2 in tumor bearing S180 mice; conditions: for spleen index compared with the negative control group: LQC-Y2 small dosage group (75 mg/Kg), cyclophosphamide 0.02 g/(Kg.d); for Spleen index (mg/g) / Spleen index: S180 mice, 15 days
Procedure: The S180 mice that had been inoculated for 7 days were killed by breaking the neck thereof and ascites was taken from the mice respectively in an aseptic environment and the ascites was washed using RPMI1640 culture medium for 2 times and then made into a […] /ml cell suspension using aseptic physiological saline. Then the obtained S180 cell suspension was inoculated hypodermically at the right axillary of mice, 0.1 ml for each mouse and 50 mice total, to establish the solid tumor model.
(§1) 60 mice were divided into 2 categories, including 6 groups, according to the random number table method, i.e. normal control group of the first category, and S180 solid tumor groups of the second category which included positive (cyclophosphamide) control group, negative control group, small dosage group, middle dosage group and large dosage group, 10 mice for each group. The experiment was repeated for 3 times.
LQC-Y2 was made into an emulsion using corn oil. The dosage of the small dosage group was 75 mg/Kg, the dosage of the middle dosage group was 150 mg/Kg, and the dosage of the large dosage group was 300 mg/kg. Equal volume of corn oil was injected into the mice of the negative control group, cyclophosphamide injection 0.02 g/(Kg.d) was injected into the mice of the positive control group. These medicines were administrated 0.1 ml per mouse by intraperitoneal injection every the other day continuously for 15 days. During this period, the common behavior, hair and excrement and so on were observed daily. The mice that had been inoculated with S180 by hypodermic inoculation were killed by breaking the necks thereof after 24 h after the last administration and the tumor, liver and spleen were then taken.
(§2) The weight of the solid tumor group mice were measured after all the administration was over and then the mice were killed. The spleens and the livers thereof were weighed by an electronic balance. The spleen index was calculated as the spleen weight of a mouse (mg)/the body weight of a mouse(g) and the liver index was calculated as the liver weight of a mouse(100 g)/the body weight of a mouse(g).
(§3) The solid tumor negative control group mice were weighed on the next day after the administration was finished (the eyeballs of the mice were removed to bleed and the serum was collected for subsequent experimental use). Then the mice were killed by breaking the neck thereof. The tumor tissues were taken out and weighed by an electronic balance to calculate the tumor-inhibiting ratio.
(§4) All the data were statistically analyzed using SPSS11.0 software pack. The comparison of the enumeration data was carried out with X^2 test. P<0.05 had statistical significance.

S180 sarcoma of mice [2] = assay: Tumor inhibiting effect of LQC-Y3 on tumor bearing S180 mice; conditions: for spleen index compared with the negative control group: LQC-Y3 middle and large dosage group (150, 300 mg/kg), cyclophosphamide 0.02 g/(Kg.d)
Procedure: The S180 mice that had been inoculated for 7 days were killed by breaking the neck thereof and ascites was taken from the mice respectively in an aseptic environment and the ascites was washed using RPMI1640 culture medium for 2 times and then made into a 2×10^7/ml cell suspension using aseptic physiological saline. Then the obtained S180 cell suspension was inoculated hypodermically at the right axillary of mice, 0.1 ml for each mouse and 50 mice total, to establish the solid tumor model.
as §1
LQC-Y3 was prepared using 0.5% CMC-Na. The dosage of the small dosage group was 75 mg/Kg, the dosage of the middle dosage group was 150 mg/Kg, and the dosage of the large dosage group was 300 mg/kg. Equal volume of 0.5% CMC-Na was injected into the mice of the negative control group and cyclophosphamide injection 0.02 g/(Kg.d) was injected into the mice of the positive control group. These medicines were administrated 0.1 ml per mouse by intraperitoneal injection every the other day continuously for 15 days. During this period, the common behavior, hair, excrement and so on were observed daily. The mice that had been inoculated with S180 by hypodermic inoculation were killed by breaking the neck thereof after 24 h after the last administration and the tumor, liver and spleen were then taken.
as §2, with “finished” for “over”, “mouse (g)” for “mouse(g)”, “mouse (100” for “mouse(100”, “mouse (g).” for “mouse(g).”
as §3, with “tumor inhibiting” for “tumor-inhibiting”
as §4

## O=P1(N(CCCl)CCCl)NCCCO1 (centres unmarked) [Cyclophosphamide, reference compound]
S180 sarcoma of mice [1]
  spleen index compared with the negative control group: smaller than those of the negative control group
S180 sarcoma of mice [1]; cyclophosphamide 0.02 g/(Kg.d) i.p.
  Spleen index (mg/g): 2.91 ± 0.10^(1)(4) mg/g
S180 sarcoma of mice [2]
  spleen index compared with the negative control group: smaller than those of the negative control group
S180 sarcoma of mice [2]; S180 mice, cyclophosphamide 0.02 g/(Kg.d) i.p., 15 days
  Spleen index (mg/g): 3.93 ± 1.11^(1)(4) mg/g

## Cc1nc(C)c(COC(=O)CCC(C)C2CCC3C4CCC5CC(O)CCC5(C)C4CC(O)C23C)nc1C (centres unmarked) [LQC-Y2, (3,5,6-trimethyl pyrazine-2-yl)methyl-4-(3,12-dihydroxy-10,13-dimethylhexadecahydro-1H-cyclopenta[a]phenanthren-17-yl)pentanoate]
S180 sarcoma of mice [1]; 75-300 mg/kg i.p.
  effect on the spleen index of tumor bearing mice: can Increase the Spleen Index
S180 sarcoma of mice [1]
  spleen index compared with the negative control group: bigger than the negative control group
S180 sarcoma of mice [1]; large dosage 300 mg/kg i.p. every other day
  Spleen index: 4.18 ± 57 mg/g
S180 sarcoma of mice [1]; middle dosage 150 mg/Kg i.p. every other day
  Spleen index: 3.69 ± 0.47 mg/g
S180 sarcoma of mice [1]; small dosage 75 mg/Kg i.p. every other day
  Spleen index (mg/g): 5.13 ± 1.24^(1)(3) mg/g

## Cc1nc(C)c(COC(=O)C23CCC(C)(C)CC2C2=CCC4C5(C)CCC(O)C(C)(C)C5CCC4(C)C2(C)CC3)nc1C (centres unmarked) [LQC-Y3, (3,5,6-trimethyl pyrazine-2-yl)methyl-10-hydroxy-2,2,6a,6b,9,9,12a-heptamethyl-1,2,3,4,4a,5,6,6a,6b,7,8,8a,9,10,11,12,12a,12b,13,14b-eicosahydropicene-4a-carboxylate]
S180 sarcoma of mice [2]; 75-300 mg/kg i.p.
  effect on the spleen index of tumor bearing mice: can Increase the Spleen Index
S180 sarcoma of mice [2]
  spleen index compared with the negative control group: bigger than the negative control group
S180 sarcoma of mice [2]; S180 mice, large dosage 300 mg/kg i.p. every other day, 15 days
  Spleen index (mg/g): 4.82 ± 2.23^(2) mg/g
S180 sarcoma of mice [2]; S180 mice, middle dosage 150 mg/Kg i.p. every other day, 15 days
  Spleen index (mg/g): 5.68 ± 1.77^(1)(4) mg/g
S180 sarcoma of mice [2]; S180 mice, small dosage 75 mg/Kg i.p. every other day, 15 days
  Spleen index: 4.36 ± 1.13 mg/g
